The list shows a part of the results.
Assays:
Test in all cases: log2 fold change, soluble protein after heating vs DMSO (PISA); higher = thermal stabilisation; K562 lysate, 10 uM; active = over 0.2 and 3.5 SD of the protein, either way, in both replicates (recomputed)
lapatinib = compound: CS(=O)(=O)CCNCc1ccc(-c2ccc3ncnc(Nc4ccc(OCc5cccc(F)c5)c(Cl)c4)c3c2)o1 [lapatinib]
In short: (§1)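 Values give the log-two fold change in thermal stability against solvent controls, from duplicates. Crude K562 extract at 1 mg/mL protein, made by dounce homogenisation in PBS pH 7.4 with 1 mM MgCl2, was treated with 10 μM compound for 30 min. After 3 min heating across 48°C-58°C, aliquots were pooled, adjusted to 0.5% NP-40 at 4°C and centrifuged at 21,000xg for 90 min. The supernatant was measured by TMTpro 16plex LC-MS/MS with channel sums equalised.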

By UniProt entry, the sequences of proteins in these tests, tags left out. Where a name states a change or a piece, a line headed by the entry shows the natural chain unless it says otherwise.
UniProt Q8NE71: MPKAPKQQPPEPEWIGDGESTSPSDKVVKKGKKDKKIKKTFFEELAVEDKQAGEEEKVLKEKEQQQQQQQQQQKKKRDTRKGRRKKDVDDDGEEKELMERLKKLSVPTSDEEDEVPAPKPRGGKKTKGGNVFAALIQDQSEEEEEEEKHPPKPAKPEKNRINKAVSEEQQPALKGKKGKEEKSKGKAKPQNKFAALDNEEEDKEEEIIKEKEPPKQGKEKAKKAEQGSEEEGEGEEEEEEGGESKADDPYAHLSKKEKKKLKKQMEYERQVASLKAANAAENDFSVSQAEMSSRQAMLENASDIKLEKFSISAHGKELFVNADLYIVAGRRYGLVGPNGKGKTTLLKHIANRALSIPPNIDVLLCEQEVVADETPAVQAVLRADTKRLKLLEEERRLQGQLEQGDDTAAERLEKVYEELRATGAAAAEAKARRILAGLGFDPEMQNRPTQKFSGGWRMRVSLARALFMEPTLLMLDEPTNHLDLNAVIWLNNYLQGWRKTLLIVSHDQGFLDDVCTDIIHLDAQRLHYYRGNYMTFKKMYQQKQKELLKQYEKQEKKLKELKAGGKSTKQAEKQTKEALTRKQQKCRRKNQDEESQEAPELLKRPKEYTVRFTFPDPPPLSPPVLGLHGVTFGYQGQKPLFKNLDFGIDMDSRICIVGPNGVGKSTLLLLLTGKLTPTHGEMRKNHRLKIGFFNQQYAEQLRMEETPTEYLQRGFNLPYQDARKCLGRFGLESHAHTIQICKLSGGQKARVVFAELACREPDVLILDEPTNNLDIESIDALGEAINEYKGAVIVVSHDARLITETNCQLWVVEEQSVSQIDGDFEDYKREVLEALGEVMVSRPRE
UniProt Q7L211: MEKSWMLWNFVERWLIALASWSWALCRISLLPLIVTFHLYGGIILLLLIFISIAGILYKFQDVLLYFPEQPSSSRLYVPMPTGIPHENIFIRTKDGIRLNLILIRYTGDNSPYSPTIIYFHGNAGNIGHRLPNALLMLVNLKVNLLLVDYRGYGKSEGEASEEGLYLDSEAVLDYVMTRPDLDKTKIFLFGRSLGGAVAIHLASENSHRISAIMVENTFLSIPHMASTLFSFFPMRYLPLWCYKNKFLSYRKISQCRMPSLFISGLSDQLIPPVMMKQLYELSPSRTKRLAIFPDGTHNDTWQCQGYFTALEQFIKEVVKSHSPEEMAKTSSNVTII
UniProt O95870: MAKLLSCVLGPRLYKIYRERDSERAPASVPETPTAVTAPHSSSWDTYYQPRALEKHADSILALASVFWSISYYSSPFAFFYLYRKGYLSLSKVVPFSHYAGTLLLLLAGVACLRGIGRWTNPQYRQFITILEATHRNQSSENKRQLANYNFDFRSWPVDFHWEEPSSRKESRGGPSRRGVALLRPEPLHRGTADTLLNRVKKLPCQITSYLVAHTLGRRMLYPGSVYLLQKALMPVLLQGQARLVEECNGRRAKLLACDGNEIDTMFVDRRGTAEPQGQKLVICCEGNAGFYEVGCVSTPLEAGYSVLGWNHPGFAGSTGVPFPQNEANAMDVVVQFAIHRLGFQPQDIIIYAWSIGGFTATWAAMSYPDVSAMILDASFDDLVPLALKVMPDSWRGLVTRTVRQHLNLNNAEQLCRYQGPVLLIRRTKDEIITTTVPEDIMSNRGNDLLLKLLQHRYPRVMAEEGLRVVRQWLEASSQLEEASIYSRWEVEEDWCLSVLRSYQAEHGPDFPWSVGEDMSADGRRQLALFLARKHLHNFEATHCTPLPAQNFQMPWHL
UniProt Q9BTE6: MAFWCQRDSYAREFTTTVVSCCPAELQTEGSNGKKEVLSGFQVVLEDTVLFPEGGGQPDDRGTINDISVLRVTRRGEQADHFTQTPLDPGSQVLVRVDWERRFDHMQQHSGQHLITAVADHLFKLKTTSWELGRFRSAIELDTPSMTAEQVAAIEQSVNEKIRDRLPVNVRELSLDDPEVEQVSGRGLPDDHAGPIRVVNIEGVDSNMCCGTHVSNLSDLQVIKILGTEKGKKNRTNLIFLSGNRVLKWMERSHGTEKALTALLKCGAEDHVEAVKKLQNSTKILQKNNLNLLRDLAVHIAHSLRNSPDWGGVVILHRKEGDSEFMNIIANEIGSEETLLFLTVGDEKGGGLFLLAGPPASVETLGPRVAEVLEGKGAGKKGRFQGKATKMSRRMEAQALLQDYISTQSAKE
UniProt Q15057: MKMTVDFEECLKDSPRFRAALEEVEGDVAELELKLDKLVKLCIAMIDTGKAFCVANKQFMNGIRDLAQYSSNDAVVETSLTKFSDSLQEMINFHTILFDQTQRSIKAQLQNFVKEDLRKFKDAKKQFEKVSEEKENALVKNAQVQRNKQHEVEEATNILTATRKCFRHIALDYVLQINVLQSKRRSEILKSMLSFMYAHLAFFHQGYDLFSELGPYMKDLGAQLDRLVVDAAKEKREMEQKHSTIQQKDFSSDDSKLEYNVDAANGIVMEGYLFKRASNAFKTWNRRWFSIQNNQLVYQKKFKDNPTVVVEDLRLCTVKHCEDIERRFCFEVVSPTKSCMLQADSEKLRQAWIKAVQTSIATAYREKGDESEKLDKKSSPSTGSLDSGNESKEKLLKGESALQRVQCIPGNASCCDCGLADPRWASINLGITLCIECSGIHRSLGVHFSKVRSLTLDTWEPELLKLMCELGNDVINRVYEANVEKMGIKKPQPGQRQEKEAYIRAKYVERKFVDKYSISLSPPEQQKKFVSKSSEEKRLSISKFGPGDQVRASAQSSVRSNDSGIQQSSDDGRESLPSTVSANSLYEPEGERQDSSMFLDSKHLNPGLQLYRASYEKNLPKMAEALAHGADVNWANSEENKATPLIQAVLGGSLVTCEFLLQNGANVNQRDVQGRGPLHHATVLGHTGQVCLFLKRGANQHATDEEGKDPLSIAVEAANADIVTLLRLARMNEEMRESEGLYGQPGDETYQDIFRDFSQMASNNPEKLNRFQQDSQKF
UniProt Q6PD74: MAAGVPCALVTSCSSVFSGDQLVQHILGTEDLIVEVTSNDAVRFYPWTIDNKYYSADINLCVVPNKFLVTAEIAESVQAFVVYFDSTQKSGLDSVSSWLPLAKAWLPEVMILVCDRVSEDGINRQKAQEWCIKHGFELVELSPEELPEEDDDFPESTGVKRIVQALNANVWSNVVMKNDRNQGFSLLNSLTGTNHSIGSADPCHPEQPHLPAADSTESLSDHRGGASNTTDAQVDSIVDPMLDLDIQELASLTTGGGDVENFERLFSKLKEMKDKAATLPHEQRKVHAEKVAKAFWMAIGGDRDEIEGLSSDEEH
UniProt Q96GS6: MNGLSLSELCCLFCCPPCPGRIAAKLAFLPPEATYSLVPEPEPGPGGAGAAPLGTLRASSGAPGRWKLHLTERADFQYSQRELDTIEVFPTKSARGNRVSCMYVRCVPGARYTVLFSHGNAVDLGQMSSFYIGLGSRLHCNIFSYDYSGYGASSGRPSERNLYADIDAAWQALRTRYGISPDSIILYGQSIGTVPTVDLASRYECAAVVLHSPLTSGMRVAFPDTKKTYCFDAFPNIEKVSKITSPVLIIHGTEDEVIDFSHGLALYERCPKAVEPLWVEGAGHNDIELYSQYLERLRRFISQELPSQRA
UniProt Q9H3P7: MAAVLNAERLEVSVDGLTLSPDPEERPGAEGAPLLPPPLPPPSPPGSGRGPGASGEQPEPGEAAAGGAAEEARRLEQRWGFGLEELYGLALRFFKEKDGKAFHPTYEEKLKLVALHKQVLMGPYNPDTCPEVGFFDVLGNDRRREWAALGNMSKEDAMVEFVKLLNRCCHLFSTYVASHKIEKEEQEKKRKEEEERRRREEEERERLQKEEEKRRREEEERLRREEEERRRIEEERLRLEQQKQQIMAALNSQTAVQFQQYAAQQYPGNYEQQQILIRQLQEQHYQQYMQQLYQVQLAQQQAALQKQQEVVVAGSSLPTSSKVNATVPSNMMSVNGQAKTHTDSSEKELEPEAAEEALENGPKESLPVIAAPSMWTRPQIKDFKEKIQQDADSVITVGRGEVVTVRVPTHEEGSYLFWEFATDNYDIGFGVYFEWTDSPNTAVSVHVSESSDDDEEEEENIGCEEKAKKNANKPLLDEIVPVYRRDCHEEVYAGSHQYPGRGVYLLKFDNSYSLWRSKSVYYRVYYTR
UniProt O15439: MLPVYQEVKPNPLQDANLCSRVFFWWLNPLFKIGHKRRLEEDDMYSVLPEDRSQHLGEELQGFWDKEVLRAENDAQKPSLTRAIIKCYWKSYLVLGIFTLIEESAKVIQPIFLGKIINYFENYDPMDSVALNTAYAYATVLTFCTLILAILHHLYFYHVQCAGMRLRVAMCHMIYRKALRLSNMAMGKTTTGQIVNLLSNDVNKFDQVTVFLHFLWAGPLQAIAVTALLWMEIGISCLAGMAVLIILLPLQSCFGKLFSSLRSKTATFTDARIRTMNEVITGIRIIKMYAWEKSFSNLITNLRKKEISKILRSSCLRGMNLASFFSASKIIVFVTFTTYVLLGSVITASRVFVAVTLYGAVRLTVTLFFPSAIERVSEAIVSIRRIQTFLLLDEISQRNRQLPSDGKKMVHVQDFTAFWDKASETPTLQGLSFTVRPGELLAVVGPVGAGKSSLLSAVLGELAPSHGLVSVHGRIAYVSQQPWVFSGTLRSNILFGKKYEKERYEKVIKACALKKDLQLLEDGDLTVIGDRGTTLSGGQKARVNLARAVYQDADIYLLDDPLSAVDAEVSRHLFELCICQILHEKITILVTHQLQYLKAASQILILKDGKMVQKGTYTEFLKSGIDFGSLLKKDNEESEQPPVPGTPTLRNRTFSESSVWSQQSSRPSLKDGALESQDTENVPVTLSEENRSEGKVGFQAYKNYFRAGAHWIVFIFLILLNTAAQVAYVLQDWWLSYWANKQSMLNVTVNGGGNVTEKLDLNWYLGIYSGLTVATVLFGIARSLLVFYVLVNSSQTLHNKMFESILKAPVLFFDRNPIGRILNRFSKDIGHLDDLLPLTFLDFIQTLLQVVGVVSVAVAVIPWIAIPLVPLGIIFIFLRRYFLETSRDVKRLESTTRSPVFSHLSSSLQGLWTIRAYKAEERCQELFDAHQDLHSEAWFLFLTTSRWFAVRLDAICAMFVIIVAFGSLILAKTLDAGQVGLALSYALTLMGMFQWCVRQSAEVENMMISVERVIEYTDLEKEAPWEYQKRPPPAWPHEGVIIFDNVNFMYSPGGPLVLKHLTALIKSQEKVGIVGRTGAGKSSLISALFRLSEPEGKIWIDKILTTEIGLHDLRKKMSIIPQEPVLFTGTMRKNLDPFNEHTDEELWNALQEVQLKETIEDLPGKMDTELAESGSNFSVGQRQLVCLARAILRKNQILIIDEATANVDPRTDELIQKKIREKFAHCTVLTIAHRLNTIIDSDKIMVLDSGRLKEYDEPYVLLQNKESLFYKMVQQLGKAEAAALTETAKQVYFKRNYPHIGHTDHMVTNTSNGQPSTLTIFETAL
UniProt Q9ULW3: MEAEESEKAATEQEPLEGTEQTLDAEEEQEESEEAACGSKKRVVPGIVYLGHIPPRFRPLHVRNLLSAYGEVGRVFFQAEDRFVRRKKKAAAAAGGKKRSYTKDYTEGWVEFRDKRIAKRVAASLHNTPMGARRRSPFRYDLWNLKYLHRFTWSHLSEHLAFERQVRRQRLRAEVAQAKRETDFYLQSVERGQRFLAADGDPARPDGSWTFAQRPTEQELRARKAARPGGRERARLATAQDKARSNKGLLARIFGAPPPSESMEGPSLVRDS
UniProt Q9NUT2: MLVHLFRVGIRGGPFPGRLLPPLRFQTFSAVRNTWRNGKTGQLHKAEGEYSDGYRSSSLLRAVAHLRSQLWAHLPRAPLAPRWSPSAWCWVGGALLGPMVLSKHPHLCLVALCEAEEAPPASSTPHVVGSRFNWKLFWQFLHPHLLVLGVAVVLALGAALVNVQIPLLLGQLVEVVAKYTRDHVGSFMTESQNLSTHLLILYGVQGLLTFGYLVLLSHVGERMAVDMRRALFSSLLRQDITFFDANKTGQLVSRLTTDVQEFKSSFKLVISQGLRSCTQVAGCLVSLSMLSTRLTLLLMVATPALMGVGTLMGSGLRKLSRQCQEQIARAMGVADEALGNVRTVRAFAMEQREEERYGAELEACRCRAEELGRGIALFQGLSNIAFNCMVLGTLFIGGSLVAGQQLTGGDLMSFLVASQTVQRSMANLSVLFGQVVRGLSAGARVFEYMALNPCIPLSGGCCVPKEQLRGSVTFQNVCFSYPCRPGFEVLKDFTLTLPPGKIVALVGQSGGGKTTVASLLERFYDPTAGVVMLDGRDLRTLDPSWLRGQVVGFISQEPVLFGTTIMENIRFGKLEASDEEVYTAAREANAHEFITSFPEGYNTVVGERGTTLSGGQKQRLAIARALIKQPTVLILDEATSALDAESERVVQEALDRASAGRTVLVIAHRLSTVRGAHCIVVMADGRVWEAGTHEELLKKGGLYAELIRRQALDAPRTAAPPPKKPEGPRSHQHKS

pictilisib = compound: CS(=O)(=O)N1CCN(Cc2cc3nc(-c4cccc5[nH]ncc45)nc(N4CCOCC4)c3s2)CC1 [pictilisib]
In short: as §1

crizotinib = compound: C[C@@H](Oc1cc(-c2cnn(C3CCNCC3)c2)cnc1N)c1c(Cl)ccc(F)c1Cl [crizotinib]
In short: as §1

[1] = compound: C[C@H](C1=CC=C(C=C1)C(=O)NC2=C3C=CNC3=NC=C2)N
In short: as §1

duvelisib = compound: C[C@H](Nc1ncnc2nc[nH]c12)c1cc2cccc(Cl)c2c(=O)n1-c1ccccc1 [duvelisib]
In short: as §1

gandotinib = compound: Cc1cc(Nc2cc(CN3CCOCC3)c3nc(C)c(Cc4ccc(Cl)cc4F)n3n2)n[nH]1 [gandotinib]
In short: as §1

tozasertib = compound: Cc1cc(Nc2cc(N3CCN(C)CC3)nc(Sc3ccc(NC(=O)C4CC4)cc3)n2)n[nH]1 [tozasertib]
In short: as §1

doramapimod = compound: Cc1ccc(-n2nc(C(C)(C)C)cc2NC(=O)Nc2ccc(OCCN3CCOCC3)c3ccccc23)cc1 [doramapimod]
In short: as §1

bafetinib = compound: Cc1ccc(NC(=O)c2ccc(CN3CC[C@H](N(C)C)C3)c(C(F)(F)F)c2)cc1Nc1nccc(-c2cncnc2)n1 [bafetinib]
In short: as §1

[2] = compound: Cc1cccc(CC(=O)N2CCc3c2ccc(-c2cn(C)c4ncnc(N)c24)c3F)n1
In short: as §1

nilotinib = compound: Cc1cn(-c2cc(NC(=O)c3ccc(C)c(Nc4nccc(-c5cccnc5)n4)c3)cc(C(F)(F)F)c2)cn1 [nilotinib]
In short: as §1

[3] = compound: Cc1nc(Nc2n[nH]c3c2CN(C(=O)N[C@H](CN(C)C)c2ccccc2)C3(C)C)c2sccc2n1
In short: as §1

dasatinib = compound: Cc1nc(Nc2ncc(C(=O)Nc3c(C)cccc3Cl)s2)cc(N2CCN(CCO)CC2)n1 [dasatinib]
In short: as §1

[4] = compound: Cc1ncc(-c2ccnc(Nc3ccc(S(C)(=O)=O)cc3)n2)n1C(C)C
In short: as §1

[5] = compound: Cn1cc(-c2ccc3c(c2)CCN3C(=O)Cc2cccc(C(F)(F)F)c2)c2c(N)ncnc21
In short: as §1

quisinostat = compound: Cn1cc(CNCC2CCN(c3ncc(C(=O)NO)cn3)CC2)c2ccccc21 [quisinostat]
In short: as §1

tipifarnib = compound: Cn1cncc1[C@@](N)(c1ccc(Cl)cc1)c1ccc2c(c1)c(-c1cccc(Cl)c1)cc(=O)n2C [tipifarnib]
In short: as §1

[6] = compound: NC(=O)Nc1cc(-c2cccc(F)c2)sc1C(=O)N[C@H]1CCCNC1
In short: as §1

[7] = compound: NC(=O)c1cnc(N[C@@H]2CCCC[C@@H]2N)nc1Nc1cccc(-n2nccn2)c1
In short: as §1

[8] = compound: NC1(c2ccc(-c3nc4ccn5c(=O)[nH]nc5c4cc3-c3ccccc3)cc2)CCC1
In short: as §1

Measured: log2 fold change

ACACA isoform 4 (UniProt Q13085)
inactive: lapatinib -0.019 | pictilisib 0 | crizotinib -0.081 | [1] -0.001 | duvelisib 0.032 | gandotinib -0.068 | tozasertib 0.033 | doramapimod 0.045 | bafetinib -0.056 | [2] 0.061 | nilotinib -0.032 | [3] 0.004 | dasatinib -0.037 | [4] 0.028 | [5] 0.043 | quisinostat -0.024 | tipifarnib 0.081 | [6] 0.03 | [7] 0.01 | [8] -0.019

ABCF1 (UniProt Q8NE71)
inactive: lapatinib -0.012 | pictilisib 0.002 | crizotinib -0.018 | [1] -0.023 | duvelisib 0.008 | gandotinib -0.085 | tozasertib -0.015 | doramapimod 0.015 | bafetinib -0.033 | [2] 0.02 | nilotinib 0.001 | [3] -0.011 | dasatinib -0.018 | [4] 0 | [5] 0.013 | quisinostat 0.015 | tipifarnib -0.005 | [6] 0.04 | [7] -0.013 | [8] -0.015

ABHD13 (UniProt Q7L211)
active: [1] -0.593
inactive: lapatinib -0.059 | pictilisib 0.049 | crizotinib 0.197 | duvelisib 0 | gandotinib 0.193 | tozasertib -0.044 | doramapimod -0.104 | bafetinib -0.197 | [2] 0.184 | nilotinib 0.152 | [3] -0.186 | dasatinib -0.177 | [4] -0.069 | [5] 0.21 | quisinostat 0.121 | tipifarnib -0.233 | [6] -0.029 | [7] 0.037

AAAS (UniProt Q9NRG9)
inactive: lapatinib -0.005 | pictilisib -0.021 | crizotinib -0.044 | [1] 0.068 | duvelisib -0.008 | gandotinib -0.024 | tozasertib -0.021 | doramapimod -0.005 | bafetinib 0.006 | [2] -0.012 | nilotinib 0.032 | [3] -0.031 | dasatinib -0.055 | [4] -0.047 | [5] 0.032 | quisinostat -0.013 | tipifarnib -0.037 | [6] 0.029 | [7] -0.008 | [8] 0.025

ABHD16A (UniProt O95870)
inactive: lapatinib 0.032 | pictilisib 0.028 | crizotinib 0.018 | [1] 0.006 | duvelisib -0.078 | gandotinib 0.081 | tozasertib -0.072 | doramapimod 0.013 | bafetinib 0.018 | [2] -0.021 | nilotinib -0.015 | [3] 0.02 | dasatinib 0.009 | [4] 0.027 | [5] -0.051 | quisinostat 0.143 | tipifarnib -0.012 | [6] -0.014 | [7] -0.003 | [8] -0.054

AARSD1 isoform 3 (UniProt Q9BTE6)
inactive: lapatinib 0.009 | pictilisib -0.025 | crizotinib 0.001 | [1] 0.049 | duvelisib 0.002 | gandotinib -0.122 | tozasertib 0.025 | doramapimod 0.022 | bafetinib -0.023 | [2] -0.009 | nilotinib 0.013 | [3] -0.002 | dasatinib -0.033 | [4] 0.022 | [5] 0.03 | quisinostat -0.013 | tipifarnib 0.001 | [6] 0.002 | [7] 0.044 | [8] 0.005

ACAP2 (UniProt Q15057)
inactive: lapatinib -0.035 | pictilisib 0.004 | crizotinib 0.011 | [1] 0.032 | duvelisib 0.018 | gandotinib -0.085 | tozasertib -0.016 | doramapimod -0.011 | bafetinib -0.039 | [2] -0.024 | nilotinib 0.007 | [3] -0.01 | dasatinib 0.007 | [4] -0.006 | [5] -0.002 | quisinostat 0.009 | tipifarnib 0.008 | [6] -0.011 | [7] 0.017 | [8] 0.01

AAGAB (UniProt Q6PD74)
inactive: lapatinib 0.028 | pictilisib -0.029 | crizotinib -0.101 | [1] -0.017 | duvelisib -0.048 | gandotinib 0.053 | tozasertib -0.04 | doramapimod 0.026 | bafetinib -0.005 | [2] 0.014 | nilotinib 0.011 | [3] 0.043 | dasatinib -0.033 | [4] -0.034 | [5] 0 | quisinostat -0.007 | tipifarnib 0.03 | [6] -0.014 | [7] 0.007 | [8] -0.043

ABHD17A isoform 2 (UniProt Q96GS6)
inactive: lapatinib -0.034 | pictilisib -0.044 | crizotinib 0.017 | [1] -0.074 | duvelisib 0.01 | gandotinib 0.139 | tozasertib 0.019 | doramapimod 0.044 | bafetinib 0.019 | [2] 0.065 | nilotinib 0.062 | [3] 0.038 | dasatinib -0.141 | [4] 0.096 | [5] 0.017 | quisinostat -0.09 | tipifarnib 0.097 | [6] -0.007 | [7] 0.008 | [8] 0.007

ACBD3 (UniProt Q9H3P7)
inactive: lapatinib 0.009 | pictilisib 0.024 | crizotinib 0.02 | [1] 0.028 | duvelisib 0.013 | gandotinib -0.025 | tozasertib -0.034 | doramapimod 0.002 | bafetinib -0.014 | [2] 0.014 | nilotinib 0.001 | [3] 0.006 | dasatinib 0.029 | [4] 0.012 | [5] 0.002 | quisinostat -0.027 | tipifarnib 0.021 | [6] 0.003 | [7] 0.024 | [8] 0.03

ABCC4 (UniProt O15439)
inactive: lapatinib -0.105 | pictilisib 0.019 | crizotinib 0.014 | [1] -0.069 | duvelisib 0.005 | gandotinib 0.035 | tozasertib 0.028 | doramapimod 0.007 | bafetinib -0.056 | [2] 0.001 | nilotinib -0.021 | [3] 0.036 | dasatinib 0.051 | [4] 0.019 | [5] 0.012 | quisinostat -0.018 | tipifarnib 0.006 | [6] -0.003 | [7] 0.01 | [8] -0.017

ABRAXAS1 (UniProt Q6UWZ7)
inactive: lapatinib 0.027 | pictilisib 0.021 | crizotinib 0.055 | [1] -0.05 | duvelisib -0.017 | gandotinib 0.073 | tozasertib 0.137 | doramapimod 0.004 | bafetinib -0.053 | [2] -0.016 | nilotinib 0.071 | [3] -0.071 | dasatinib 0.059 | [4] 0.072 | [5] 0.005 | quisinostat 0.007 | tipifarnib 0.072 | [6] 0.032 | [7] 0.003 | [8] 0.029

ABCE1 (UniProt P61221)
inactive: lapatinib -0.017 | pictilisib 0 | crizotinib 0.002 | [1] 0.021 | duvelisib 0.017 | gandotinib -0.014 | tozasertib -0.018 | doramapimod -0.022 | bafetinib 0.046 | [2] -0.021 | nilotinib 0.037 | [3] 0.105 | dasatinib 0.046 | [4] 0.015 | [5] 0 | quisinostat 0.004 | tipifarnib 0.01 | [6] -0.013 | [7] 0 | [8] -0.023

2 neighbouring entries from above, quoted:
ACBD3 (UniProt Q9H3P7)
inactive: lapatinib 0.009 | pictilisib 0.024 | crizotinib 0.02 | [1] 0.028 | duvelisib 0.013 | gandotinib -0.025 | tozasertib -0.034 | doramapimod 0.002 | bafetinib -0.014 | [2] 0.014 | nilotinib 0.001 | [3] 0.006 | dasatinib 0.029 | [4] 0.012 | [5] 0.002 | quisinostat -0.027 | tipifarnib 0.021 | [6] 0.003 | [7] 0.024 | [8] 0.03

ABCC4 (UniProt O15439)
inactive: lapatinib -0.105 | pictilisib 0.019 | crizotinib 0.014 | [1] -0.069 | duvelisib 0.005 | gandotinib 0.035 | tozasertib 0.028 | doramapimod 0.007 | bafetinib -0.056 | [2] 0.001 | nilotinib -0.021 | [3] 0.036 | dasatinib 0.051 | [4] 0.019 | [5] 0.012 | quisinostat -0.018 | tipifarnib 0.006 | [6] -0.003 | [7] 0.01 | [8] -0.017

(further entries)

ABT1 (UniProt Q9ULW3)
inactive: lapatinib 0.032 | pictilisib -0.068 | crizotinib -0.126 | [1] -0.017 | duvelisib 0.028 | gandotinib -0.016 | tozasertib 0.048 | doramapimod 0.015 | bafetinib 0.05 | [2] 0.069 | nilotinib 0.019 | [3] -0.025 | dasatinib 0.018 | [4] 0.095 | [5] -0.006 | quisinostat -0.147 | tipifarnib 0.042 | [6] 0.075 | [7] 0.044 | [8] -0.026

ABCB8 (UniProt Q9NUT2)
inactive: lapatinib -0.003 | pictilisib -0.044 | crizotinib -0.063 | [1] -0.034 | duvelisib 0.048 | gandotinib -0.066 | tozasertib 0.029 | doramapimod 0.046 | bafetinib -0.033 | [2] 0.053 | nilotinib 0 | [3] -0.213 | dasatinib -0.076 | [4] -0.043 | [5] 0.035 | quisinostat -0.021 | tipifarnib -0.046 | [6] 0.063 | [7] -0.013 | [8] 0.013

ACBD6 (UniProt Q9BR61)
inactive: lapatinib -0.002 | pictilisib 0.01 | crizotinib -0.04 | [1] -0.036 | duvelisib 0.063 | gandotinib -0.01 | tozasertib -0.051 | doramapimod -0.024 | bafetinib -0.047 | [2] 0.006 | nilotinib -0.032 | [3] 0.007 | dasatinib 0.04 | [4] 0.012 | [5] 0.013 | quisinostat -0.017 | tipifarnib 0.013 | [6] -0.014 | [7] 0.06 | [8] -0.04
